In PubChem BioAssay AID1487 (National Center for Advancing Translational Sciences (NCATS), 2009):
This is one part of the list. Shown are side measurements of this screen, not its main read-out; they come without a call. Most of these compounds were active or inconclusive in the main read-out, so they are no random draw. Potencies come from curve fits of mixed quality, noted in brackets.

Assay: qHTS Assay for Modulators of Lamin A Splicing
Details: HeLa LMNA splicing GFP/RFP minigene ratio, 48 h
Method in brief: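 Read-out is the ratio of GFP to DsRed2 object intensity, acquired by 488 nm laser-scanning cytometry on HeLa lamin A-EGFP minigene reporter cells. Compound incubation 48 hrs at 37 °C in Opti-MEM with 2% FBS; DMSO 0.5% final.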

[1] = measured here: GFP splicing reporter channel
[2] = measured here: RFP viability control channel

Row | SMILES | AC50 [1] | AC50 [2]
1 | CCOC(=O)c1c(C)[nH]c(C)c1C(=O)CSc1nnc(-c2ccc(OC(F)F)cc2)o1 | 12.6 µM [falling, partial curve] | 12.6 µM [falling, partial curve]
2 | COc1cc(-c2cccs2)cc(=O)c2c(C)oc(C)c12 | 17.8 µM [rising, partial curve, poor fit] | 12.6 µM [rising, partial curve]
3 | CCOC(=O)c1c(NC(=O)CSc2ncccn2)sc2c1CCN(Cc1ccccc1)C2 | 14.1 µM [rising, partial curve, poor fit] | 25.1 µM [rising, single point]
4 | CC(=O)N1CCCc2cc(S(=O)(=O)N3CCC(C)CC3)ccc21 | 8.91 µM [rising, partial curve, poor fit] | 11.2 µM [rising, partial curve]
5 | COc1ccc(N/N=C(\C=N\O)C(=O)c2ccc(OC)cc2)cc1 | 7.94 µM [falling, partial curve, poor fit] | 11.2 µM [falling, partial curve]
6 | CCN(CC)c1ccc2cc(-c3nc(-c4ccc(OC)cc4)cs3)c(=O)oc2c1 | 1.58 µM [falling, full curve] | 1.12 µM [falling, full curve]
7 | O=C(c1cccc(Cl)c1)N1CCN(Cc2ccccc2F)CC1 | – | 14.1 µM [rising, single point]
8 | O=C(CC1C(=O)NCCN1Cc1ccc(-c2ccccc2)cc1)NCc1ccccc1 (stereo not drawn) | 8.91 µM [rising, single point] | –
9 | CCn1c(SCC(=O)N/N=C/c2ccc(O)c(OC)c2)nc2ccccc21 | 1.58 µM [rising, partial curve] | 0.562 µM [rising, full curve]
10 | COc1cc(/C=C/C(=O)c2ccccc2O)cc(OC)c1OC | – | 35.5 µM [falling, single point]
11 | Cc1cccc(CSCCNC(=O)c2ccc(CN3CCOCC3)cc2)c1 | 12.6 µM [rising, partial curve] | 22.4 µM [rising, single point]
12 | COc1ccc(Cc2nc3ccc(C(=O)NCc4ccc(OC)cc4OC)cc3o2)cc1 | – | 0.00501 µM [falling, full curve, poor fit]
13 | COc1cccc(-c2nc(NC(C)C)c3ccccc3n2)c1O | 31.6 µM [rising, single point] | 0.0126 µM [falling, full curve, poor fit]
14 | Cc1c(C(=O)Nc2ccc(F)cc2)oc2ccc(S(=O)(=O)N3CC(C)CC(C)C3)cc12 (stereo not drawn) | – | 2.82 µM [rising, full curve]
15 | Cc1ccc(N(C(=O)c2ccccc2Cl)C2=NC(C)CS2)c(C)c1 (stereo not drawn) | – | 11.2 µM [rising, single point]
16 | CC(C)CCN(C(=S)Nc1cccc(F)c1)C1CCN(C(C)C)CC1 | – | 0.398 µM [falling, full curve, poor fit]
17 | COCCN(C(=O)CCl)C(C(=O)NC1CCCCC1)c1ccccc1C (stereo not drawn) | 22.4 µM [falling, single point] | 35.5 µM [falling, single point]
18 | O=C(N/N=C/c1cc(Br)ccc1O)C(c1ccncc1)N1CCOCC1 (stereo not drawn) | 35.5 µM [rising, single point] | 31.6 µM [rising, single point]
19 | Cc1ccc(C)c(C(=O)CSc2n[nH]c(C(C)C)n2)c1 | 11.2 µM [rising, partial curve, poor fit] | 14.1 µM [rising, partial curve, poor fit]
20 | N#CC1=C(N)Oc2cc3ccccc3cc2C1c1cccs1 (stereo not drawn) | 2.24 µM [falling, partial curve, poor fit] | 2.51 µM [falling, partial curve, poor fit]
21 | CC(C)NC(=O)c1cnc(N2CCN(c3ccccn3)CC2)c2ccccc12 | 14.1 µM [rising, partial curve] | 11.2 µM [rising, partial curve]
22 | c1ccc(C2CNCc3c2ccc2ccccc32)cc1 (stereo not drawn) | – | 22.4 µM [rising, single point]
23 | O=C(CCl)Nc1cc2[nH]c(=O)[nH]c2cc1Br | 3.55 µM [falling, full curve, poor fit] | 35.5 µM [falling, single point]
24 | Cc1ccc(S(=O)(=O)N2CCC(=O)N(C(COCc3ccc(C(F)(F)F)cc3)Cc3ccccc3)CC2)cc1 (stereo not drawn) | 7.08 µM [rising, partial curve] | 12.6 µM [rising, partial curve]
25 | O=C(NCCN1C(=O)S/C(=C\c2ccc(Cl)c(Cl)c2)C1=O)C1COc2ccccc2O1 (stereo not drawn) | 5.62 µM [falling, single point] | –
26 | Cc1nn(Cc2ccc(Cl)cc2)c(=O)n1N(C)c1ncc(C(F)(F)F)cc1Cl | – | 20 µM [rising, single point]
27 | Clc1cccc(Cl)c1Cn1ccc(C2CC2)n1 | 0.501 µM [falling, full curve, poor fit] | –

Another view of 2 compounds above.
Row	SMILES	AC50 [1]	AC50 [2]
21	CC(C)NC(=O)c1cnc(N2CCN(c3ccccn3)CC2)c2ccccc12	14.1 µM [rising, partial curve]	11.2 µM [rising, partial curve]
22	c1ccc(C2CNCc3c2ccc2ccccc32)cc1 (stereo not drawn)	–	22.4 µM [rising, single point]

The results go on.

Row | SMILES | AC50 [1] | AC50 [2]
28 | CCc1ccc(C2C(C#N)=C(N)C(C#N)(C#N)C3=CCC(C(C)(C)C)CC32)cc1 (stereo not drawn) | 35.5 µM [falling, single point] | 22.4 µM [falling, single point]
29 | Brc1ccc(CNCc2cccs2)cc1 | – | 0.1 µM [rising, full curve, poor fit]
30 | O=Cc1ccccc1Oc1ccccc1 | – | 0.158 µM [falling, full curve, poor fit]
31 | O=C(C1CC(Cl)CN1S(=O)(=O)c1ccc(Cl)cc1)N1CCOCC1 (stereo not drawn) | – | 0.282 µM [falling, full curve, poor fit]
32 | CCOc1cccc(CNn2cnnc2)c1OCc1ccccc1Cl | – | 0.794 µM [rising, single point]
33 | COc1ccc2oc(=O)c(-c3csc(Nc4ccc(O)cc4)n3)cc2c1 | 35.5 µM [falling, single point] | 35.5 µM [falling, single point]
34 | CCc1ccc(NC(=O)Cn2c(=O)oc3cc(S(=O)(=O)N4CCOCC4)ccc32)cc1 | – | 11.2 µM [rising, partial curve]
35 | Cc1ccc(S(=O)(=O)c2c(N)n(-c3ccccc3)c3nc4ccccc4nc23)cc1 | – | 14.1 µM [rising, single point]
36 | CCc1ccc2nc3nc(C)cc(C)c3c(N)c2c1 | – | 14.1 µM [rising, partial curve]
37 | CCCc1c(C)nn(-c2ncccc2[N+](=O)[O-])c1C | 20 µM [rising, partial curve] | –
38 | COc1ccc(/C=C(\C#N)C(=O)OCC(=O)NC2CC2)cc1 | – | 12.6 µM [falling, partial curve, poor fit]
39 | N#C/C(=C1\C(=O)Nc2c(Cl)cc(Cl)cc21)c1nnc2n1CCCCC2 | 28.2 µM [rising, partial curve, poor fit] | 22.4 µM [rising, partial curve]
40 | Cc1cc(C(=O)CSc2nnc(NCc3ccccc3)s2)c(C)n1C | – | 31.6 µM [rising, single point]
41 | c1csc(CNc2cc(-c3ccoc3)ncn2)c1 | 15.8 µM [falling, single point] | –
42 | CCN(Cc1ccccc1)c1ccc(/C=N/NC(=O)c2cccc(S(=O)(=O)N3CCOCC3)c2)cc1 | 2.51 µM [rising, full curve] | 6.31 µM [rising, partial curve]
43 | Cc1ccc(S(=O)(=O)NCCCCCC(=O)Nc2ccccc2)cc1 | 7.08 µM [rising, full curve, poor fit] | 7.94 µM [rising, partial curve]
44 | Cc1ccccc1NCc1cccn1-c1nnc(N2CCC(C)CC2)s1 | – | 35.5 µM [rising, single point]
45 | COc1cnn(-c2ccc(Br)cc2)c(=O)c1SCc1ccccc1 | 31.6 µM [rising, single point] | 31.6 µM [rising, single point]
46 | CCCNC(=O)c1cc(S(=O)(=O)N2CCc3ccccc32)ccc1F | – | 35.5 µM [rising, single point]
47 | CCN(CCCNC(=O)CCc1nc(-c2ccc(OC)cc2)no1)c1cccc(C)c1 | – | 31.6 µM [rising, single point]
48 | CCOC(=O)c1c(C)[nH]c(C2=NNC(=Nc3ccccc3OC)SC2)c1C | – | 25.1 µM [rising, single point]
49 | Cc1ccc(NC(=O)c2sc3nc4c(c(-c5ccco5)c3c2N)CCC4)cc1 | 0.2 µM [rising, full curve, poor fit] | 0.224 µM [rising, full curve, poor fit]
50 | CC(C)N1C(=O)S/C(=C/c2ccc(Sc3nc4ccccc4[nH]3)o2)C1=O | – | 4.47 µM [rising, full curve]
51 | CCOC(=O)c1cccc(NC(=O)c2ccc3nc(Cc4ccccc4)oc3c2)c1 | 7.08 µM [rising, full curve, poor fit] | 7.08 µM [rising, full curve]
52 | COC(C(=O)NCc1ccccc1C)c1ccccc1 (stereo not drawn) | – | 3.55 µM [rising, single point]
53 | CC(C)NCC(O)COc1ccc(COCCOC(C)C)cc1 (stereo not drawn) | – | 0.0501 µM [rising, full curve]
54 | O=C(c1cc2nc(-c3ccc(F)cc3)cc(C(F)(F)F)n2n1)N1CCCC1 | 0.0398 µM [falling, full curve, poor fit] | –
